Assay [1] has as its target T1, ɛ‐sarcoglycan (mouse, endogenous; all isoforms caught by the pan anti‐ɛ‐sarcoglycan antibody) (mouse (endogenous in brain and lung)) (UniProt O70258).
T1 sequence: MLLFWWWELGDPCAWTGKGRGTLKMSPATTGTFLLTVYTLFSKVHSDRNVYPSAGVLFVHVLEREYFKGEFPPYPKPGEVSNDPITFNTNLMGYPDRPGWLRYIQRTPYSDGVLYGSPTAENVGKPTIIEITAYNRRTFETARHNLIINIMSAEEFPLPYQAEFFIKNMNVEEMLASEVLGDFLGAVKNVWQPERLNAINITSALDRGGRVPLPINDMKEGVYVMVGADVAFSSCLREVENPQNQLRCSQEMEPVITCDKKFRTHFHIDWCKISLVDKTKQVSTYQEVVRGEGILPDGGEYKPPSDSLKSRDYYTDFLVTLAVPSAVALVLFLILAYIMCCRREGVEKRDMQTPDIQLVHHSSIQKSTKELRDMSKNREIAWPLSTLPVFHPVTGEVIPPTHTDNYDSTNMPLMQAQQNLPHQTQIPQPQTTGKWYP
Description: co-IP; immunoaffinity purification with the pan anti‐ɛ‐sarcoglycan antibody from mouse brain and lung solubilized in RIPA buffer, Western blot.

Assay [2] deals with T1, ɛ‐sarcoglycan (mouse, endogenous; all isoforms caught by the pan anti‐ɛ‐sarcoglycan antibody) (mouse (endogenous in brain and lung)). As to the kind of experiment: co-IP; immunoaffinity purification with the pan anti‐ɛ‐sarcoglycan antibody from mouse brain and lung solubilized in 1% digitonin, Western blot.
For assay [3], the target named is T2, ɛ‐sarcoglycan (rat, endogenous; all isoforms caught by the pan antibody esg‐4990) (rat (endogenous in brain and heart)) (UniProt Q6YAT4).
T2 sequence: T1 sequence with N216K, H265Q, H267Y, D350N, V397I, T401M, A416T, Q418P, P429Q
As to the kind of experiment: co-IP; immunoaffinity purification with esg‐4990 beads from RIPA extracts of rat brain and heart, Western blot of the eluate.

Changes are numbered by the printed parent chain. Results are given in words; binding and its absence hold for the method and conditions named. Binding seen in cells or lysates may run through a third protein. For part of these data: Binding calls can cover weak binding; strength is not graded here.

In the case of dystrophin Dp71 (mouse, endogenous), the binding result in assay [1] is recorded as “no binding (only tissue extracted in RIPA buffer)”; in assay [2] it was “binds”. Turning to β‐sarcoglycan (rat, endogenous), in assay [3], the binding entry is on record as “binds”.

The record behind these values is article PMC5129563.
